From US20060053496A1
Results are given in words; binding and its absence hold for the method and conditions named. Binding seen in cells or lysates may run through a third protein. Binding can be weak; no strength is given. Tags and fused reporters may be left off the sequences shown.

Assays:
α-tubulin [1] = experiment: summary sentence of Example 2 (co-immunoprecipitation)
β-tubulin [2] = experiment: as above
α-tubulin [3] = experiment: anti-FLAG co-immunoprecipitation from 293T cells, 2D gel, MALDI-MS
β-tubulin [4] = experiment: as above

binding (α-tubulin [1]): binds | binding (β-tubulin [2]): binds | binding (α-tubulin [3]): binds | binding (β-tubulin [4]): binds
B1: FLAG-tagged Monarch-1 (protein, not shown: small tags and cut ends)
chain: MLRTAGRDGLCRLSTYLEELEAVELKKFKLYLGTATELGEGKIPWGSMEKAGPLEMAQLLITHFGPEEAWRLALSTFERINRKDLWERGQREDLVRDTPPGGPSSLGNQSTCLLEVSLVTPRKDPQETYRDYVRRKFRLMEDRNARLGECVNLSHRYTRLLLVKEHSNPMQVQQQLLDTGRGHARTVGHQASPIKIETLFEPDEERPEPPRTVVMQGAAGIGKSMLAHKVMLDWADGKLFQGRFDYLFYINCREMNQSATECSMQDLIFSCWPEPSAPLQELIRVPERLLFIIDGFDELKPSFHDPQGPWCLCWEEKRPTELLLNSLIRKKLLPELSLLITTRPTALEKLHRLLEHPRHVEILGFSEAERKEYFYKYFHNAEQAGQVFNYVRDNEPLFTMCFVPLVCWVVCTCLQQQLEGGGLLRQTSRTTTAVYMLYLLSLMQPKPGAPRLQPPPNQRGLCSLAADGLWNQKILFEEQDLRKHGLDGEDVSAFLNMNIFQKDINCERYYSFIHLSFQEFFAAMYYILDEGEGGAGPDQDVTRLLTEYAFSERSFLALTSRFLFGLLNEETRSHLEKSLCWKVSPHIKMDLLQWIQSKAQSDGSTLQQGSLEFFSCLYEIQEEEFIQQALSHFQVIVVSNIASKMEHMVSSFCLKRCRSAQVLHLYGATYSADGEDRARCSAGAHTLLVQLRPERTVLLDAYSEHLAAALCTNPNLIELSLYRNALGSRGVKLLCQGLRHPNCKLQNLRLKRCRISSSACEDLSAALIANKNLTRMDLSGNGVGFPGMMLLCEGLRHPQCRLQMIQLRKCQLESGACQEMASVLGTNPHLVELDLTGNALEDLGLRLLCQGLRHPVCRLRTLWLKICRLTAAACDELASTLSVNQSLRELDLSLNELGDLGVLLLCEGLRHPTCKLQTLRLGICRLGSAACEGLSVVLQANHNLRELDLSFNDLGDWGLWLLAEGLQHPACRLQKLWLDSCGLTAKACENLYFTLGINQTLTDLYLTNNALGDTGVRLLCKRLSHPGCKLRVLWLFGMDLNKMTHSRLAALRVTKPYLDIGC
